From US20240190950A1, “METHOD OF TREATING DISEASES USING GREMLIN1 ANTAGONISTS” (SHANGHAI JIAO TONG UNIVERSITY, priority 2021, published 2024)
No constants are given. Whether binding was seen depends on the method and setting. For part of these data: In cells and extracts the contact can be indirect. Some entries that bind do so weakly or less than the wild type.

Sequences of proteins named here, by UniProt entry; tags and fusion partners are left off. A change or cut given only in a name is not applied to a line headed by its entry.
UniProt P11362: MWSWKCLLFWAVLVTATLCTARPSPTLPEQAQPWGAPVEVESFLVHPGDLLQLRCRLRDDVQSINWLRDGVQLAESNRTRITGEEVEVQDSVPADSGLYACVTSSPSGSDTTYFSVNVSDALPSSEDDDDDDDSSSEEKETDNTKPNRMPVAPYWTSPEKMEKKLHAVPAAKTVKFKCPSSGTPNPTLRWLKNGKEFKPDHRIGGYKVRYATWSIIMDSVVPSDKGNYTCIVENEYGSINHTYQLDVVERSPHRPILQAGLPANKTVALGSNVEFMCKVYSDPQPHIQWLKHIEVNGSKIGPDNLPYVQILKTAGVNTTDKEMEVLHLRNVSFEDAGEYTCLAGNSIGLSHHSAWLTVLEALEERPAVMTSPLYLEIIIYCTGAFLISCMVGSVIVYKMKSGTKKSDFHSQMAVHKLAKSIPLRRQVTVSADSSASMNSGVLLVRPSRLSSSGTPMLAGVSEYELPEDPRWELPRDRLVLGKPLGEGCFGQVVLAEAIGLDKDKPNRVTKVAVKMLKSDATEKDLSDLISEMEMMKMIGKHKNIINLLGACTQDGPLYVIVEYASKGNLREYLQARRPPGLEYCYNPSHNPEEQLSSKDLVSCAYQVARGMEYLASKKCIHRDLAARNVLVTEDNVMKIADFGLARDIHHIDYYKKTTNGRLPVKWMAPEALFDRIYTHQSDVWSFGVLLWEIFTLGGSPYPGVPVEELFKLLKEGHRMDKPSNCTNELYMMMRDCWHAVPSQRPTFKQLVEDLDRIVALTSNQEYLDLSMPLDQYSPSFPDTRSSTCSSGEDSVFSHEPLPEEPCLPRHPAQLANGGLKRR

Legend:
[1] = target: FGFR1 (protein used in the ForteBio and ELISA assays) (human) (UniProt P11362); test: Fortebio, co-immunofluorescent staining and co-immunoprecipitation; FGF1 added as possible competitor
[2] = target: FGFR1 (protein used in the ForteBio and ELISA assays) (human) (UniProt P11362); test: ELISA
[3] = target: FGFR1 (protein used in the ForteBio and ELISA assays) (human) (UniProt P11362); test: ELISA on FGFR1, biotin-labelled ligand in rising concentration
[4] = target: FGFR1 (protein used in the ForteBio and ELISA assays) (human) (UniProt P11362); test: Fortebio (R), co-immunostaining (S) and pull-down (T, U); FGF1 added as possible competitor
soluble FGFR1 (human) [5] = target: soluble FGFR1 (human) (UniProt P11362); test: pull-down of purified proteins (Gremlin1-his, FGFR1-Fc), immunoblot
FGFR1-R248Q (human) = FGFR1-R248Q (human) (UniProt P11362); test: co-immunoprecipitation
FGFR1-C176G (human) = FGFR1-C176G (human) (UniProt P11362); test: co-immunoprecipitation
soluble FGFR1 (human) [6] = target: soluble FGFR1 (human) (UniProt P11362); test: pull-down (Fc-IP) of FGFR1-Fc with FGF1 and rising Gremlin1, immunoblot
soluble FGFR1 (human) [7] = target: soluble FGFR1 (human) (UniProt P11362); test: pull-down (Fc-IP) of FGFR1-Fc with Gremlin1 and rising FGF1, immunoblot

Measured: binding

B1: Gremlin1 (human gremlin 1, hGREM1) (ligand)
chain: KKKGSQGAIPPPDKAQHNDSEQTQSPQQPGSRNRGRGQGRGTAMPGEEVLESSQEALHVTERKYLKRDWCKTQPLKQTIHEEGCNSRTIINRFCYGQCNSFYIPRHIRKEEGSFQSCSFCKPKKFTTMMVTLNCPELQPPTKKKRVTRVKQCRCISIDLD
modifications: biotin label in the ForteBio assay (site not stated)
binds: all assays above
